For 1 substance, binding results are on record in doi:10.1101/2023.11.21.568117.

Protein sequences, listed by entry. Tags and fused reporters are not part of them.
UniProt Q03347: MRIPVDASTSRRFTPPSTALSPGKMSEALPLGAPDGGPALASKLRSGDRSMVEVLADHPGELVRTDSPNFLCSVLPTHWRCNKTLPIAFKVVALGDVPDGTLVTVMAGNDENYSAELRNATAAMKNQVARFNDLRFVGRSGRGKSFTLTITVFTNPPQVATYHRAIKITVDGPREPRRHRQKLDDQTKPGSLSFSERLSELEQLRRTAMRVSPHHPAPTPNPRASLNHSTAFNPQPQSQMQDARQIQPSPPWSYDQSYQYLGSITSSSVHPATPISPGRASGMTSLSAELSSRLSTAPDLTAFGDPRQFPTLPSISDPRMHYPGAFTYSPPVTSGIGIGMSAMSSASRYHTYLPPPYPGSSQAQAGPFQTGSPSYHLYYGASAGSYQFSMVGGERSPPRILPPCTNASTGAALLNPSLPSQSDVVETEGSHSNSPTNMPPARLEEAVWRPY
UniProt P28322: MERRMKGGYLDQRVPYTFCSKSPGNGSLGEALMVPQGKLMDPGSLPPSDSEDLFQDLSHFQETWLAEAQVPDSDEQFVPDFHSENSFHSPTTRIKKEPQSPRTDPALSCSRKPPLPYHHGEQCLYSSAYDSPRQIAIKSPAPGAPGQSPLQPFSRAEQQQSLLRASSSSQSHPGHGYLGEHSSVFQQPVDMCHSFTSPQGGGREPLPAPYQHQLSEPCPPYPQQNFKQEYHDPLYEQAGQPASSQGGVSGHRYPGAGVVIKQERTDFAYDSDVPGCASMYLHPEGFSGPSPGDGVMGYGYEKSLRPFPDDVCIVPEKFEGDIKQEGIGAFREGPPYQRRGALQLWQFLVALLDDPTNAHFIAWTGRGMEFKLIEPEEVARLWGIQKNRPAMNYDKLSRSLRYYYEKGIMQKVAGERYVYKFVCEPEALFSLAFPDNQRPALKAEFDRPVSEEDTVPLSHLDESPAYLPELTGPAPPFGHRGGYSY

The test concerns the target Myc-tagged Runx1 (mouse) (UniProt Q03347). As to the kind of experiment: co-IP.

These are yes or no findings as the source states them, for the method shown. In cells and extracts the contact can be indirect. Some results given as binding are weak or reduced against the parent protein; the word gives no strength.

Regarding Flag-ETV4 (from UniProt P28322 1-485), the binding result was “binds”.
